The structures appear in SMILES notation.

This data set concerns BT474. Description: Cell viability (CellTiter-Blue, 72 h), phytocannabinoids alone and in combination, BT474 breast cancer cells. It counts as cell-based. The conditions noted are these: BT474, 1% FBS. As to the method: The cell lines tested in this Example were as follows. Breast cancer: MDA-MB-231; SK-BR3; and BT474. Liver cancer: HepG2.
The phytocannabinoids were tested alone and in various ratioed combinations in media containing final concentrations of 10% and 1% foetal bovine serum at 72 h for the breast and prostate cancer lines and 1% foetal bovine serum for the liver cancer line HepG2.
Each tumour cell line was maintained in vitro in RPMI 1640+10% heat inactivated FBS and 2 mM L-glutamine (growth media) at 37° C. in 5% CO2 and humidified conditions. The cells were harvested, washed, re-suspended into growth medium and counted. The cells were re-suspended into assay media (RPMI 1640+5% heat inactivated FBS+ and 2 mM L-glutamine) at 8×104-2×10^5 cells/ml (dependent upon cell type) and plated into the middle 240 wells of 384 well tissue culture plates (Corning CellBind, black-wall plates) 12.5 μl/well aliquots; 62.5 μl of growth media was aliquoted into the outer wells. There were 4 plates for each cell line. The plates were incubated overnight at 37° C., in 5% humidified CO2.
The phytocannabinoid test compounds were prepared in 100% DMSO vehicle at a stock concentration of 10 mM.
Starting with the 10 mM stock, the compounds were diluted to 125 μM in FBS-free growth media.
These were diluted in FBS-free growth media to 125 μM before serial dilution.
5 volumes of CBD 10 mM stock was added to 1 volume of the other agent (also at 10 mM) and 4 volumes of DMSO. This made a final concentration of 5 mM:1 mM. This was then diluted in FBS-free growth media so the top concentration of CBD would be 125 μM (before serial dilution). Each compound and compound combination stock was serially diluted in FBS-free growth media (containing 1.25% v/v DMSO) from 125 μM to 41.7, 13.89, 4.63, 1.54, 0.514, 0.171, 0.057 and 0.019 μM (1.25× final assay concentrations). Vehicle was prepared at equivalent dilutions in assay media. The top final concentration of compound in the assay was always 100 μM so CBD5:1CBG was 100 μM CBD and 20 μM CBG.
Taxotere SOC was prepared at a stock concentration of 1 mM in 100% DMSO. Taxotere was serially diluted from the stock solution into FBS-free growth media to 12.5 μM, then serially diluted in FBS-free growth media containing 1.25% DMSO to 4.17, 1.39, 0.46, 0.154, 0.051, 0.017, 0.006, 0.002 μM (1.25× final assay concentrations).
This was then serially diluted in FBS-free growth media to 0.417, 0.139, 0.046, 0.0154, 0.0051, 0.0017, 0.0006, 0.0002 μM (1.25× final assay concentrations). This was plated as a positive control for the SKBR3 & BT474 cell lines. 50 μl per well of compound/vehicle dilutions was added to the plates in replicates of 6. Where applicable total volume in the well was made up to 62.5 μl with assay media.
The plates were incubated for 72 h at 37° C. in 5% humidified CO2. To develop the plates, at 72 h, 10 μl of CellTiter-Blue™ reagent was added to each test/blank well. […] Fluorescence was measured using a Flex II Station plate reader (570 nm excitation wavelength, 600 nm emission wavelength, 590 nm cut-off) after 3 h. […]
The raw data values expressed in relative fluorescent units were normalised to the vehicle for each individual plate and any reduction in fluorescence indicated a decrease in viability.
The data were analysed in GraphPad PRISM using a non-linear sigmoidal plot with variable slope (asymmetric five point linear regression) and where possible an IC50 value for each single compound and combination was generated. […]
Background: Alamar Blue is a resazurin reagent that responds to reducing activity.
As for `C=C(C)[C@@H]1CCC(C)=C[C@H]1c1c(O)cc(CCCCC)cc1O` [CBD, Cannabidiol], the “m (shape parameter of dose effect curve)” value stood at 1.93. In the case of `C=C(C)[C@@H]1CCC(C)=C[C@H]1c1c(O)cc(CCCCC)c(C(=O)O)c1O` [CBDA, Cannabidiolic acid] it was 3.20; in that of `CCCCCc1cc(O)c(C/C=C(\C)CCC=C(C)C)c(O)c1` [CBG, Cannabigerol], 1.76.

Regarding `CCCCCc1cc(O)c(C/C=C(\C)CCC=C(C)C)c(O)c1C(=O)O` [CBGA, Cannabigerolic acid], the “m (shape parameter of dose effect curve)” value is 2.06. Take `CCCc1cc(O)c2c(c1)OC(C)(C)[C@@H]1CCC(C)=C[C@@H]21` [THCV, Tetrahydrocannabivarin]: the “m (shape parameter of dose effect curve)” value was found to be 1.93.

The record behind these values is patent US9962341B2, “Active pharmaceutical ingredient (API) comprising cannabinoids for use in the treatment of cancer” (GW Pharma Limited, priority 2014, dated 2018).
